A: 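Enzyme assay of the cytosolic lysyl-tRNA synthetase in 384-well plates, read by luminescence. Target: Lysine-tRNA ligase, Plasmodium falciparum 3D7 (UniProt Q8IDJ8). Tested at 30 µM. Higher reads as stronger inhibition, judged from the few compounds that gave an IC50. Of about 69,000 compounds tested this way, about 49 (0.071%) reached 50% or more in at least one test.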
B: 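Enzyme assay of histidyl-tRNA synthetase; the read-out is not stated. Target: Histidine-tRNA ligase, Trypanosoma cruzi CL Brener (UniProt Q4DA54). Tested at 30 µM. Direction is inferred from retests: higher values go with stronger inhibition. About 69,000 compounds were tested under these conditions; 0.045% (about 31) showed 50% or more at least once.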
C: 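Enzyme assay of the thioesterase domain of polyketide synthase 13; the read-out is not stated. Target: Polyketide synthase Pks13, Mycobacterium tuberculosis (UniProt I6X8D2). Compounds at 30 µM. The record gives no direction; the compounds picked for IC50 retests had high values, so higher reads as stronger inhibition. Size under these conditions: about 67,000 compounds, about 300 of them at 50% or above in at least one test.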

By UniProt entry, the sequences of proteins in these tests, tags left out. Residues count along the entry.
UniProt Q8IDJ8, 1-583: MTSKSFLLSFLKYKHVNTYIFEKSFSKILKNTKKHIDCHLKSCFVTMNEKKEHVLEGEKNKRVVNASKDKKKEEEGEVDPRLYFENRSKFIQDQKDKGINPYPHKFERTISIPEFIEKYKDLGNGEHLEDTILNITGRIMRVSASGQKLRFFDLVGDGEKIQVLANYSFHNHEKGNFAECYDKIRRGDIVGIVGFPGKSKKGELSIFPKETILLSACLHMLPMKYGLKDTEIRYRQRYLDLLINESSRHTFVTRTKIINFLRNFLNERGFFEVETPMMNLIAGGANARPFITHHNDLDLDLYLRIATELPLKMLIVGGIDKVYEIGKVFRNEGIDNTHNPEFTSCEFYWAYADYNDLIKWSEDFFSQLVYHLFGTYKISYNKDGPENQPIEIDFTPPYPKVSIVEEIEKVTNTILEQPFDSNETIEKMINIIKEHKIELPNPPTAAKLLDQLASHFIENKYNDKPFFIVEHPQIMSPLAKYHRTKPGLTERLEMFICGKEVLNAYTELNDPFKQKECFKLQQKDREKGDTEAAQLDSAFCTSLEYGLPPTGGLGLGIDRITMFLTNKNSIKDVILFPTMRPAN
UniProt Q4DA54, 1-478: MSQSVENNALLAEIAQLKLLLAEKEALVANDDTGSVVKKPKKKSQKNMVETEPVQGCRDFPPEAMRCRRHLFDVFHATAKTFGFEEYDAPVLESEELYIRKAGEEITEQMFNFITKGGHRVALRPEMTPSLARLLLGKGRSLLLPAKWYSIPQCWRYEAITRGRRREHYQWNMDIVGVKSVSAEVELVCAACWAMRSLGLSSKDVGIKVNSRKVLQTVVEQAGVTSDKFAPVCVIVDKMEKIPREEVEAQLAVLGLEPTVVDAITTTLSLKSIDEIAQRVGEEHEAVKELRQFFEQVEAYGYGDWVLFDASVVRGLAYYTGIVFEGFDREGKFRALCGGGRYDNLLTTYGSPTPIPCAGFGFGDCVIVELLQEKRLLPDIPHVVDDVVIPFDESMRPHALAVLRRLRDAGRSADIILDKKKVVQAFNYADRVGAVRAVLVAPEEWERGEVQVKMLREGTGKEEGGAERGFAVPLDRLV
UniProt I6X8D2, whole entry: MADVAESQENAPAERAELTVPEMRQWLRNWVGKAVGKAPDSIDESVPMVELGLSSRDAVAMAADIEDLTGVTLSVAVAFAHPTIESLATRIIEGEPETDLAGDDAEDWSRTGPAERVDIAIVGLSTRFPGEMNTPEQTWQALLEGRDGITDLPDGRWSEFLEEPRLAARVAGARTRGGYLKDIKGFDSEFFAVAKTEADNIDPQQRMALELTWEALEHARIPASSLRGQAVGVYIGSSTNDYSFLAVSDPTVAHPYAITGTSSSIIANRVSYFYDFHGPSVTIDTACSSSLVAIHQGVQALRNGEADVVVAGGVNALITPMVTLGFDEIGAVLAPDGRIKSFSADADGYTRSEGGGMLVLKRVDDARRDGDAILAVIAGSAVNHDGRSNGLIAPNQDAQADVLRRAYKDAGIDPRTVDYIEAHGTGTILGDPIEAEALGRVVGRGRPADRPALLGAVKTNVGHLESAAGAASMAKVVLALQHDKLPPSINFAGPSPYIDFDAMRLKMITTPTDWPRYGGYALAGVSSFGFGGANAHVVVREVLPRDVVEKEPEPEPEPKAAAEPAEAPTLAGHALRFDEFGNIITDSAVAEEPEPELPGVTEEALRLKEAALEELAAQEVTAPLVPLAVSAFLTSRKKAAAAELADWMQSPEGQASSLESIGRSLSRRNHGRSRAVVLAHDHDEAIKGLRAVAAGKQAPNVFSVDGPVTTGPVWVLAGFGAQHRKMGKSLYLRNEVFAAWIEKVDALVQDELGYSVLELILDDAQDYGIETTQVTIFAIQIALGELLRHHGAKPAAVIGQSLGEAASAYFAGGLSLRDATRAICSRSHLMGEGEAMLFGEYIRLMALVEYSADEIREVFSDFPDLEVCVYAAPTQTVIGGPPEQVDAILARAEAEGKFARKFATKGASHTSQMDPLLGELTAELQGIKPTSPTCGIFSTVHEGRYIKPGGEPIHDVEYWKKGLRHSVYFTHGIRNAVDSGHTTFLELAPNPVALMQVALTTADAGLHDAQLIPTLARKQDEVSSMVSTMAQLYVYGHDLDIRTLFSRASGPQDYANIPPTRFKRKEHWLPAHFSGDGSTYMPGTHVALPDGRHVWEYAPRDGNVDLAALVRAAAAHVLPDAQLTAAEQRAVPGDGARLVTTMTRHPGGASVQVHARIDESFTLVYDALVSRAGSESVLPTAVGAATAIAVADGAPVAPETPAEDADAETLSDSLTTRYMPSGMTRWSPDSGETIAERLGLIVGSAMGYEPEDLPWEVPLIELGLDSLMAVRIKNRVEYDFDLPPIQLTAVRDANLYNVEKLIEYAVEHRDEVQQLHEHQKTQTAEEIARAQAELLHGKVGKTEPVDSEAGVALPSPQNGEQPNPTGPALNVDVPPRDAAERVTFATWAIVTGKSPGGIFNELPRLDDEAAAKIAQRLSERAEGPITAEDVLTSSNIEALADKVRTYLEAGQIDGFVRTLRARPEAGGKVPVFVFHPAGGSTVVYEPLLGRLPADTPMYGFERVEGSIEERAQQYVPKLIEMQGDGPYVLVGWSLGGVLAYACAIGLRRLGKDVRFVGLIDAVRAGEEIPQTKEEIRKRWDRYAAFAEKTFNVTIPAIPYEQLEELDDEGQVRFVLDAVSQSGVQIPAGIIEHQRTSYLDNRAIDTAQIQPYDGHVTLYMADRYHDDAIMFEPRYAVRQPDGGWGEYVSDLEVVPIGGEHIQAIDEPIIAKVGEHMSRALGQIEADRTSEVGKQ

Values are the deposited “Percent Effect”, in %. How 0% and 100% were set is not recorded. Most values in the screen are low, and negative values occur. Compounds were drawn at random from those tested, without regard to their results.

Compound: O=C1COc2cc(C(=O)NCc3ccc(Cl)s3)ccc2N1
A: 25.91%
B: -0.5525%
C: -9.685%

Compound: Cn1nc(Cn2ccnc2)c2c1CN(Cc1ccoc1)C2
A: -4.032%
B: 7.362%
C: 17.84%

Compound: O=C(Cc1cc(F)cc(Cl)c1)N[C@@H]1CCNC[C@H]1O
A: 1.065%
B: 8.287%
C: -17.03%

Compound: Cc1nn(C)cc1-c1ccnc(N(C)Cc2ccon2)n1
A: -1.519%
B: 13.79%
C: -18.38%

Compound: CCn1c(C2CCNCC2)nn(CCCc2ccccc2)c1=O
A: 1.551%
B: 6.122%
C: 10.35%

Compound: CN(Cc1n[nH]c(=O)n1Cc1ccccc1F)S(C)(=O)=O
A: 4.259%
B: 5.366%
C: -3.867%

Compound: Cc1cc(CN(C)C(=O)NCc2ccccn2)no1
A: 6.821%
B: -1.02%
C: -5.626%

Compound: CCN(CC)C(CNC(=O)c1cccnc1-n1cncn1)c1ccsc1 (centres unmarked)
A: -1.289%
B: -1.587%
C: -6.532%

Compound: CN(C)c1cc(C(=O)N2CCCCC2CNS(C)(=O)=O)ccn1 (centres unmarked)
A: -1.179%
B: 6.706%
C: -10.68%

Compound: O=C(c1cc2cc(I)ccc2[nH]1)N1CCC(Nc2cccnn2)CC1
A: -0.3599%
B: 6.105%
C: 26.49%

Compound: Cc1cc(CCC(=O)N2CCOCC2)ccc1Br
A: 2.705%
B: 3.158%
C: -12.86%

Compound: CCOc1ccc2cc(C(=O)NCCC(=O)N(C)C)[nH]c2c1
A: 2.224%
B: 1.739%
C: -4.731%

Compound: CN(CCO)C[C@@H]1CN(Cc2ccccc2C#N)C[C@@H]1CO
A: 1.801%
B: 0.5405%
C: -4.452%

Compound: COc1ccc(OC)c2c(C)cc(N(C)CCO)nc12
A: 4.014%
B: 11.22%
C: -25.07%

Compound: COc1ccc(C)cc1CN1CCCC1Cn1nc(C)nc1C (centres unmarked)
A: 3.508%
B: 10.9%
C: -22.97%

Compound: CCC1CN(C(=O)c2cncc(C)c2)CCC(=O)N1Cc1ccccc1 (centres unmarked)
A: 1.329%
B: 1.02%
C: -18.84%

Compound: O=C(O)C(c1cccc2c1OCC2)N1CCC(N2CCCC2)CC1 (centres unmarked)
A: 2.692%
B: 3.061%
C: -14.55%

Compound: CC1(COc2ccccc2)NCCc2[nH]cnc21 (centres unmarked)
A: 3.007%
B: 8.247%
C: -10.85%

Compound: O=C(c1cncc(N2CC[C@@]3(O)CCNC[C@H]3C2)n1)N1CCCC1
A: 0.883%
B: 2.273%
C: -28.13%

Compound: O=S(=O)(N1CCCCC1)N1CCOC2(CCCC2)C1
A: 2.883%
B: 4.762%
C: -8.962%

Compound: Cc1cnn(CC2CCCCN2C(=O)c2ccc(CN(C)C)cc2)c1 (centres unmarked)
A: 0.09483%
B: 5.539%
C: -14.2%

Compound: CCOc1nnc(CN2CCN(CCOC)C(C)C2)s1 (centres unmarked)
A: 10.48%
B: 8.333%
C: 3.228%

Compound: CC(C)c1nc(NC(=O)CCCn2cccc2)n(C)n1
A: 3.689%
B: 6.522%
C: -19.44%

Compound: Cc1cnc2c(c1NCc1ccccn1)c(=O)n(C)c(=O)n2C
A: -1.175%
B: 6.024%
C: -2.447%

Compound: CCc1cc(NCCCNS(C)(=O)=O)nc(-c2ccccn2)n1
A: 2.326%
B: 6.077%
C: -38.31%

Compound: O=C(NCCSc1cnn[nH]1)c1c[nH]nc1C1CCCCC1
A: 5.099%
B: 10.39%
C: -175.4%

Compound: O=C(c1ccn(-c2ccc(F)cc2)n1)N(CCO)Cc1cccnc1
A: -3.179%
B: 4.891%
C: 10.6%

Compound: Cc1noc(C)c1CCC(=O)NC(C)c1nnc2n1CCC2 (centres unmarked)
A: -2.301%
B: -5.085%
C: -14.06%

Compound: O=C(NS(=O)(=O)c1cc(Cl)sc1Cl)c1cccc2c1OCCO2
A: -0.7998%
B: -4.959%
C: -6.417%

Compound: O=C(c1cc(=O)c(OCc2ccccc2)co1)N1CCSCC1
A: -1.083%
B: 3.659%
C: 1.618%

Compound: COc1cc(CNCCn2cc(C)cn2)cc2c1OCCO2
A: 0.427%
B: 6.471%
C: -12.15%

Compound: COc1cc2ccccc2cc1C(=O)N1CCCC(c2nncn2C)C1 (centres unmarked)
A: 1.72%
B: 6.122%
C: -18.73%

Compound: COc1ccc(CNC2CCCc3nc(N(C)C)ncc32)c(OC)c1 (centres unmarked)
A: 0.2561%
B: 6.468%
C: -4.339%

Compound: c1ccc2c(N3CCCCC3Cn3cccn3)ncnc2c1 (centres unmarked)
A: -0.4905%
B: 6.122%
C: -9.609%

Compound: COC1CCN(c2ccc(F)cc2CN(C)S(C)(=O)=O)CC1
A: 3.356%
B: 1.739%
C: -21.41%

Compound: O=C(CN1CCOCS1(=O)=O)NCCc1ccc(Cl)cc1
A: 1.654%
B: 8.333%
C: 0.02336%

Compound: CC(C)(CO)N1CCN(S(=O)(=O)CCCF)CC1
A: -0.3658%
B: 7.216%
C: -7.974%

Compound: O=C(CC1CNCCO1)N1CCC(c2cc(N3CCCC3)ncn2)CC1 (centres unmarked)
A: -5.591%
B: 1.064%
C: -14.05%

Compound: CCCN1CCCC(O)(c2nc(C)c(COc3ccccc3)s2)CC1 (centres unmarked)
A: -2.103%
B: 4.651%
C: -19.49%

The first 3 entries again:

| Compound | A | B | C |
|---|---|---|---|
| `O=C1COc2cc(C(=O)NCc3ccc(Cl)s3)ccc2N1` | 25.91% | -0.5525% | -9.685% |
| `Cn1nc(Cn2ccnc2)c2c1CN(Cc1ccoc1)C2` | -4.032% | 7.362% | 17.84% |
| `O=C(Cc1cc(F)cc(Cl)c1)N[C@@H]1CCNC[C@H]1O` | 1.065% | 8.287% | -17.03% |

The values are deposited in ChEMBL (CHEMBL3988442, “University of Dundee, Small-Polar-MMV Screening Library” (2021)).